Assay results from US20180062087A1, “Organic Compound, Organic Semiconductor Material, Organic Thin Film And Method For Producing The Same, Organic Semiconductor Composition, And Organic Semiconductor Device” (Nippon Kayaku Kabushiki Kaisha, priority 2015, published 2018).

Experiment: Evaluation of organic transistor characteristics (spin-coated top-contact bottom-gate transistor)
Conditions: for Applicability to the solution process: film formation by spin coating at 25° C.; for Threshold voltage / Hole mobility: organic thin film spin coated at 25° C.; for Threshold voltage / Hole mobility / On/off ratio: drain voltage −30V, gate voltage +20V to −80V; for Hole mobility: calculated from Formula (a); for On/off ratio: ratio of ON-current to OFF-current
Protocol: Using the solutions containing Organic compounds 1, 2, 5, and 6 which were obtained in Example 11, organic thin films were formed on n-doped silicon wafers each having a SiO2 thermal oxide film, at 25° C. by spin coating. On each of the organic thin films, Au was vacuum deposited using a shadow mask to give a source electrode and a drain electrode. For these organic transistors, the channel length was set at 50 μm, and the channel width was set at 2.5 mm. In the organic transistors of these Examples, each being composed of the n-doped silicon wafer having a SiO2 thermal oxide film, the SiO2 thermal oxide film served as the insulator layer (4), and the n-doped silicon wafer served as both the substrate (6) and the gate electrode (5).
The performance of the organic transistor depends on the amount of electric current that flows when an electrical potential is applied between the source electrode and the drain electrode while an electrical potential is kept applied to the gate electrode. Mobility, which is one of the characteristics of the organic transistor, can be determined by measuring the value of the electric current. Mobility can be calculated by Formula (a) which expresses electrical characteristics of carrier seeds generated in the organic semiconductor layer when a gate electrical field is applied to the SiO2 thermal oxide film as the insulator layer.
In this formula, Id represents the saturated source-drain current value, Z represents the channel width, Ci represents the capacitance of the insulator, Vg represents the gate electrical potential, Vt represents the threshold potential, L represents the channel length, and μ represents the mobility to be determined (cm^2/Vs). Ci is determined by the dielectric constant of the SiO2 insulating film. Z and L are determined by the device structure of the organic transistor. Id and Vg are determined when the value of the electric current of the organic transistor is measured. Vt is obtained from Id and Vg. By assigning these values to Formula (a), mobility at the gate electrical potential of each organic transistor can be calculated.
The hole mobility, the threshold voltage, and the ratio of ON-current to OFF-current (“on/off ratio”) of the organic transistor, calculated from Formula (a), are shown in Table 3.

## CCCCCCCCc1ccc2sc3c4cc5cc(-c6ccccc6)ccc5cc4sc3c2c1 [Organic compound 5]
  Applicability to the solution process: applicable to the solution process
  Threshold voltage: −4.8 V
  Hole mobility: 2.58 cm^2/Vs
  On/off ratio: 10^8

## CCCCCCCCCCc1ccc2cc3sc4c5cc(-c6ccccc6)ccc5sc4c3cc2c1 [Organic compound 6]
  Applicability to the solution process: applicable to the solution process
  Threshold voltage: −23 V
  Hole mobility: 1.97 cm^2/Vs
  On/off ratio: 10^7
